Results are given in words; binding and its absence hold for the method and conditions named. For part of these data: In cells and extracts the contact can be indirect. Some entries that bind do so weakly or less than the wild type. For part of these data: Tags and fused reporters may be left off the sequences shown.
Assays:
His-HDAC11 = molecular target: T1, His-HDAC11 (UniProt Q96DB2); test: far-Western, overlay or dot blot; purified protein spotted on nitrocellulose at increasing amounts (BSA as control), blocked with 5% milk in TBST, incubated with the purified partner in 5% milk for 3 h at 4°C, bound protein detected with antibody; both purified
T1 sequence: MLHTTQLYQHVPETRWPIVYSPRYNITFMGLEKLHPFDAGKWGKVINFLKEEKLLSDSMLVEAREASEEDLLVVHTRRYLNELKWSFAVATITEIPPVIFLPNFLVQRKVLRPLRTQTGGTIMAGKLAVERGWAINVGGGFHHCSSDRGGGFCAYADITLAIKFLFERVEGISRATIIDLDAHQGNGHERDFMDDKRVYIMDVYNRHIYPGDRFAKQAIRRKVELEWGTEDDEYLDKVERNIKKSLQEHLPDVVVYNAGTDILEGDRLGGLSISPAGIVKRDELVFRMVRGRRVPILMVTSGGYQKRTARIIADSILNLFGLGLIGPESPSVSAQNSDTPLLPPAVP

GFP-ARD1A [1] = molecular target: T2, GFP-ARD1A (UniProt P41227); test: as above
T2 sequence: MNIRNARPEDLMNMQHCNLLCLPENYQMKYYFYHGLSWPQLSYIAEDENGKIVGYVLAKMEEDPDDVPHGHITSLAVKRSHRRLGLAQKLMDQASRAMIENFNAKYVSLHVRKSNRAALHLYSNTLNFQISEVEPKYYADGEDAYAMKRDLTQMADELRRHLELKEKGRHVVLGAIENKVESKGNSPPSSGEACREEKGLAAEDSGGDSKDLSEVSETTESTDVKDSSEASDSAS

GFP-ARD1A [2] = molecular target: T2, GFP-ARD1A; test: co-IP; in vitro: purified recombinant proteins incubated in RIPA buffer, precipitated with anti-GFP-Trap beads or anti-FLAG M2 beads, Western blot with anti-GFP and anti-FLAG; both purified
FLAG-Cdc25A [3] = molecular target: T3, FLAG-Cdc25A (UniProt P30304); test: far-Western, overlay or dot blot; purified protein spotted on nitrocellulose at increasing amounts (BSA as control), blocked with 5% milk in TBST, incubated with the purified partner in 5% milk for 3 h at 4°C, bound protein detected with antibody; both purified
T3 sequence: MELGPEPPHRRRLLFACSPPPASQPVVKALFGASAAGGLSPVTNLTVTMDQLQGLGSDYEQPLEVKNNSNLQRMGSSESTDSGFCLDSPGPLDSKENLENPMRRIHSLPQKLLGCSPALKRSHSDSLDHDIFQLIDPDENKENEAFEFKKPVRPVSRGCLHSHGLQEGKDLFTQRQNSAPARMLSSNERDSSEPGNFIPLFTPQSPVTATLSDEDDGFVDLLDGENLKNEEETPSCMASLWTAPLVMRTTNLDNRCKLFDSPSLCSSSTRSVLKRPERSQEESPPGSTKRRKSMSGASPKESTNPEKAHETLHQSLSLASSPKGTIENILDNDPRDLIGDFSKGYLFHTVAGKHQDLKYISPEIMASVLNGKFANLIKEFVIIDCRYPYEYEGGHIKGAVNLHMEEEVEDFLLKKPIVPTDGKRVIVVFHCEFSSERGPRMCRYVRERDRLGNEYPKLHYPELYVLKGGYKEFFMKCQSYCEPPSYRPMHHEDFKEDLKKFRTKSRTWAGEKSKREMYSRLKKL

FLAG-Cdc25A [4] = molecular target: T3, FLAG-Cdc25A; test: co-IP; in vitro: purified recombinant proteins incubated in RIPA buffer, precipitated with anti-GFP-Trap beads or anti-FLAG M2 beads, Western blot with anti-GFP and anti-FLAG; both purified
GFP-Cdc25A = molecular target: T4, GFP-Cdc25A (UniProt P30304); test: co-IP; HEK 293T cells co-transfected for 24 h; lysates precipitated with anti-GFP antibody, Western blot
T4 sequence: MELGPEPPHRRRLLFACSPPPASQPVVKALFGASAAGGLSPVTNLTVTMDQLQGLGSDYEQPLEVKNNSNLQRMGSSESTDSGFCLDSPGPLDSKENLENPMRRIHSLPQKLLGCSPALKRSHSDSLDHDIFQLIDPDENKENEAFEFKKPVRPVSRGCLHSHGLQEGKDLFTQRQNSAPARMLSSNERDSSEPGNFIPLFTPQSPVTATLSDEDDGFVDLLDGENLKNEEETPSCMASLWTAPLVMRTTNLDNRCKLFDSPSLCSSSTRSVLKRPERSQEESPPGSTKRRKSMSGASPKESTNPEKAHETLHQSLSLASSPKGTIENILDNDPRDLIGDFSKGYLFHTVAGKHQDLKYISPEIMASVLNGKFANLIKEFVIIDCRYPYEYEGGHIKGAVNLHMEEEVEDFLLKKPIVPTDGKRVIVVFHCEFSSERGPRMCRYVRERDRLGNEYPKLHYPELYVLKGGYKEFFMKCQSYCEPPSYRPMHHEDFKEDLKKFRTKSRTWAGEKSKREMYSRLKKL

[5] = molecular target: T5, endogenous Cdc25A (human (endogenous in HEK 293T)) (UniProt P30304); test: co-IP; endogenous proteins, HEK 293T lysates in RIPA buffer with DNase I; anti-Cdc25A, anti-ARD1 or anti-HDAC11 with Protein G Plus/Protein A beads, 18 h at 4°C; washes with 200 μg/ml ethidium bromide; normal IgG as control
T5 sequence: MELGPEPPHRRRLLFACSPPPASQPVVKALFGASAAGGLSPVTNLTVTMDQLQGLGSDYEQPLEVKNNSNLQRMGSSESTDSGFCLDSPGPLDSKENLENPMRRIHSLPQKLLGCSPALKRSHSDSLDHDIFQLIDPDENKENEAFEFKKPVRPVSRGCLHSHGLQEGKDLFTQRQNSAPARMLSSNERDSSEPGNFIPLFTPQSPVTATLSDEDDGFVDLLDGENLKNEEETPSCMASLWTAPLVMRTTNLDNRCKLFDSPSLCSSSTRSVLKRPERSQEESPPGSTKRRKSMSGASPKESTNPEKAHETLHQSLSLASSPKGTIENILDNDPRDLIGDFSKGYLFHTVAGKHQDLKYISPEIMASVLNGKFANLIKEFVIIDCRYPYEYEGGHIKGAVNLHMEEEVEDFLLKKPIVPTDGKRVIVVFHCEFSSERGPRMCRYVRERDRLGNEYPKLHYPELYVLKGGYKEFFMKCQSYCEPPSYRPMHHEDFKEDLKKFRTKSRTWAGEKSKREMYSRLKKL

[6] = molecular target: T6, endogenous HDAC11 (human (endogenous in HEK 293T)) (UniProt Q96DB2); test: as above
T6 sequence: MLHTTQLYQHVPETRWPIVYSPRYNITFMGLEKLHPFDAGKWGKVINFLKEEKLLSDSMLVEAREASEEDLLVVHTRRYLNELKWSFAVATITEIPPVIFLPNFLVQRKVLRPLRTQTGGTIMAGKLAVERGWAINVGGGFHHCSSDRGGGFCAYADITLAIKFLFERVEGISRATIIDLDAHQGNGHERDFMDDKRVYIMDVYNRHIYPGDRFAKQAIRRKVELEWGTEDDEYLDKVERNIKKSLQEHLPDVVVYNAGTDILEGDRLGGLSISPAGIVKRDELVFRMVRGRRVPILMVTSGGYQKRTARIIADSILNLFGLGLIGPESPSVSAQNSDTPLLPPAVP

B1: FLAG-Cdc25A (enzyme, UniProt P30304 1-524)
chain: MELGPEPPHRRRLLFACSPPPASQPVVKALFGASAAGGLSPVTNLTVTMDQLQGLGSDYEQPLEVKNNSNLQRMGSSESTDSGFCLDSPGPLDSKENLENPMRRIHSLPQKLLGCSPALKRSHSDSLDHDIFQLIDPDENKENEAFEFKKPVRPVSRGCLHSHGLQEGKDLFTQRQNSAPARMLSSNERDSSEPGNFIPLFTPQSPVTATLSDEDDGFVDLLDGENLKNEEETPSCMASLWTAPLVMRTTNLDNRCKLFDSPSLCSSSTRSVLKRPERSQEESPPGSTKRRKSMSGASPKESTNPEKAHETLHQSLSLASSPKGTIENILDNDPRDLIGDFSKGYLFHTVAGKHQDLKYISPEIMASVLNGKFANLIKEFVIIDCRYPYEYEGGHIKGAVNLHMEEEVEDFLLKKPIVPTDGKRVIVVFHCEFSSERGPRMCRYVRERDRLGNEYPKLHYPELYVLKGGYKEFFMKCQSYCEPPSYRPMHHEDFKEDLKKFRTKSRTWAGEKSKREMYSRLKKL
binding (His-HDAC11): binds
binding (GFP-ARD1A [1]): binds
binding (GFP-ARD1A [2]): binds

B2: His-HDAC11 (enzyme, UniProt Q96DB2 1-347)
chain: MLHTTQLYQHVPETRWPIVYSPRYNITFMGLEKLHPFDAGKWGKVINFLKEEKLLSDSMLVEAREASEEDLLVVHTRRYLNELKWSFAVATITEIPPVIFLPNFLVQRKVLRPLRTQTGGTIMAGKLAVERGWAINVGGGFHHCSSDRGGGFCAYADITLAIKFLFERVEGISRATIIDLDAHQGNGHERDFMDDKRVYIMDVYNRHIYPGDRFAKQAIRRKVELEWGTEDDEYLDKVERNIKKSLQEHLPDVVVYNAGTDILEGDRLGGLSISPAGIVKRDELVFRMVRGRRVPILMVTSGGYQKRTARIIADSILNLFGLGLIGPESPSVSAQNSDTPLLPPAVP
binding (FLAG-Cdc25A [3]): binds

B3: GFP-ARD1A (enzyme, UniProt P41227 1-235)
chain: MNIRNARPEDLMNMQHCNLLCLPENYQMKYYFYHGLSWPQLSYIAEDENGKIVGYVLAKMEEDPDDVPHGHITSLAVKRSHRRLGLAQKLMDQASRAMIENFNAKYVSLHVRKSNRAALHLYSNTLNFQISEVEPKYYADGEDAYAMKRDLTQMADELRRHLELKEKGRHVVLGAIENKVESKGNSPPSSGEACREEKGLAAEDSGGDSKDLSEVSETTESTDVKDSSEASDSAS
binding (FLAG-Cdc25A [3]): binds
binding (FLAG-Cdc25A [4]): binds

B4: FLAG-tagged ARD1A (enzyme, UniProt P41227 1-235)
chain: MNIRNARPEDLMNMQHCNLLCLPENYQMKYYFYHGLSWPQLSYIAEDENGKIVGYVLAKMEEDPDDVPHGHITSLAVKRSHRRLGLAQKLMDQASRAMIENFNAKYVSLHVRKSNRAALHLYSNTLNFQISEVEPKYYADGEDAYAMKRDLTQMADELRRHLELKEKGRHVVLGAIENKVESKGNSPPSSGEACREEKGLAAEDSGGDSKDLSEVSETTESTDVKDSSEASDSAS
binding (GFP-Cdc25A): binds

B5: endogenous HDAC11 (enzyme, UniProt Q96DB2 1-347)
chain: MLHTTQLYQHVPETRWPIVYSPRYNITFMGLEKLHPFDAGKWGKVINFLKEEKLLSDSMLVEAREASEEDLLVVHTRRYLNELKWSFAVATITEIPPVIFLPNFLVQRKVLRPLRTQTGGTIMAGKLAVERGWAINVGGGFHHCSSDRGGGFCAYADITLAIKFLFERVEGISRATIIDLDAHQGNGHERDFMDDKRVYIMDVYNRHIYPGDRFAKQAIRRKVELEWGTEDDEYLDKVERNIKKSLQEHLPDVVVYNAGTDILEGDRLGGLSISPAGIVKRDELVFRMVRGRRVPILMVTSGGYQKRTARIIADSILNLFGLGLIGPESPSVSAQNSDTPLLPPAVP
binding [5]: binds

B6: endogenous Cdc25A (enzyme, UniProt P30304 1-524)
chain: MELGPEPPHRRRLLFACSPPPASQPVVKALFGASAAGGLSPVTNLTVTMDQLQGLGSDYEQPLEVKNNSNLQRMGSSESTDSGFCLDSPGPLDSKENLENPMRRIHSLPQKLLGCSPALKRSHSDSLDHDIFQLIDPDENKENEAFEFKKPVRPVSRGCLHSHGLQEGKDLFTQRQNSAPARMLSSNERDSSEPGNFIPLFTPQSPVTATLSDEDDGFVDLLDGENLKNEEETPSCMASLWTAPLVMRTTNLDNRCKLFDSPSLCSSSTRSVLKRPERSQEESPPGSTKRRKSMSGASPKESTNPEKAHETLHQSLSLASSPKGTIENILDNDPRDLIGDFSKGYLFHTVAGKHQDLKYISPEIMASVLNGKFANLIKEFVIIDCRYPYEYEGGHIKGAVNLHMEEEVEDFLLKKPIVPTDGKRVIVVFHCEFSSERGPRMCRYVRERDRLGNEYPKLHYPELYVLKGGYKEFFMKCQSYCEPPSYRPMHHEDFKEDLKKFRTKSRTWAGEKSKREMYSRLKKL
binding [6]: binds
